Results reported in paper doi:10.1101/2024.09.13.612607.
These are yes or no findings as the source states them, for the method shown. In cells and extracts the contact can be indirect. Some entries that bind do so weakly or less than the wild type.

Sequences of proteins named here, by UniProt entry; tags and fusion partners are left off.
UniProt P26641: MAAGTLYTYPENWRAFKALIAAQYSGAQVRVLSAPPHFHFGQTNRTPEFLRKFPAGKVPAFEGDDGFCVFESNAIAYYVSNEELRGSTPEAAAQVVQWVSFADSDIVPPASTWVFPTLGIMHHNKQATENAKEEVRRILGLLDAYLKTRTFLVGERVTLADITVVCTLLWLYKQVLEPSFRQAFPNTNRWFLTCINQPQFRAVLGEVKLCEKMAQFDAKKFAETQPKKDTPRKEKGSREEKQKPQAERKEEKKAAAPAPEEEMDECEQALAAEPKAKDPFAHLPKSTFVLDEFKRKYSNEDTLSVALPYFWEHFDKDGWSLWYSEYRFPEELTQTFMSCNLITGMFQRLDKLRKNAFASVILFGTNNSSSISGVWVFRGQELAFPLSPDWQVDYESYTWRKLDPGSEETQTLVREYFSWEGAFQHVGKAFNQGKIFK

Molecular target: T1, YTH domain family protein 1 (YTHDF1) (human (endogenous in H1975)) (UniProt Q9BYJ9)
T1 sequence: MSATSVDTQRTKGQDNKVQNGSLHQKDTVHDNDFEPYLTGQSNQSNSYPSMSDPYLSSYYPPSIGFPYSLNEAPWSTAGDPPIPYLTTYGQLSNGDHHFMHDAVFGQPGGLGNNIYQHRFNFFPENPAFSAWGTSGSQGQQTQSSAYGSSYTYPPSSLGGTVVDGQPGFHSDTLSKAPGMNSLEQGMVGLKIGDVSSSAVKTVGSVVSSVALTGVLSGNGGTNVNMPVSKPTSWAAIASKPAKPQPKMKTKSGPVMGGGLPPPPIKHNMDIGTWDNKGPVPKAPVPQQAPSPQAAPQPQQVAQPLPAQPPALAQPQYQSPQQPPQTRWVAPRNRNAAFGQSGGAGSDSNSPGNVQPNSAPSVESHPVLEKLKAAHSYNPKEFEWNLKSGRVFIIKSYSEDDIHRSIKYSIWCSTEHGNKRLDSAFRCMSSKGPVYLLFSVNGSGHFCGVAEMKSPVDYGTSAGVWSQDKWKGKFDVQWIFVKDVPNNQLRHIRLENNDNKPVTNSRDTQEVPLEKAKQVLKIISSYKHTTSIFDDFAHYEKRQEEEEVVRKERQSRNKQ
Assay: co-IP

binding: binds
Substance: EEF1G (from UniProt P26641 1-437)
